Reference: EP1637166A2
These are yes or no findings as the source states them, for the method shown. Some entries that bind do so weakly or less than the wild type.

The chains behind the UniProt entries cited, without tags or fusion partners. Residues count along the entry.
UniProt P51682: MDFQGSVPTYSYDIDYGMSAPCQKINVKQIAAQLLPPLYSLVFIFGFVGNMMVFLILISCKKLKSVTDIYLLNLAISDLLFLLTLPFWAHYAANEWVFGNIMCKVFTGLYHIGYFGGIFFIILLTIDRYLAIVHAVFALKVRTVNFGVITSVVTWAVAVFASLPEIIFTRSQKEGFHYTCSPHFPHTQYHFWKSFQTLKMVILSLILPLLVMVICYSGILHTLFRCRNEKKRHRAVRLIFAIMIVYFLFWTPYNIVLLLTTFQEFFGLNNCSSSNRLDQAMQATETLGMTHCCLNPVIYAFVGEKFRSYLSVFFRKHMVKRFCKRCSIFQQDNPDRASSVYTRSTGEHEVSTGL
UniProt P13501, residues 24-91: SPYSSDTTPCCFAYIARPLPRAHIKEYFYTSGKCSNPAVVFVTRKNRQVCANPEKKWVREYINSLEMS

Biological target: mouse CCR5 (mCCR5) cloned from B6 mice, transiently expressed on HeLa-MAGI cells (mouse) (UniProt P51682)
Experiment: displacement of 125I-labelled human RANTES from mCCR5-transfected HeLa-MAGI cells by 50 nM non-iodinated human RANTES

binding: binds
Substance: non-iodinated human RANTES (R & D Systems) (from UniProt P13501 24-91) (ligand)
